Some results were stated once for a whole list of compounds, not compound by compound.
Experiments:
Alternaria brassicae = test: In vivo test on Alternaria brassicae (leaf spot of crucifers), radish plants, preventive spray; details: dose of 500 g/ha; radish plants (Pernot variety); contaminated 24 hours after treatment; grading 6 to 7 days after contamination vs control plants
Septoria tritici = test: In vivo test on Septoria tritici (leaf spot of wheat), preventive spray; details: dose of 500 g/ha; wheat plants (Scipion variety); contaminated 24 hours after treatment; grading 15 to 20 days after contamination vs control plants
Procedure: (§1) An aqueous suspension, at a concentration of 1.5%, of the active material tested is obtained by grinding it finely in a formulation of concentrated suspension type. This aqueous suspension is then diluted in water so as to obtain the desired active material concentration. Wheat plants (Scipion variety) in starter cups, sown on a 50/50 peat soil-pozzolana substrate and grown at 12° C., are treated at the 1-leaf stage (10 cm tall) by spraying with the aqueous suspension described above. Plants, used as controls, are treated with an aqueous solution not containing the active material.
After 24 hours, the plants are contaminated by spraying them with an aqueous suspension of Septoria tritici spores (500,000 spores per mL). The spores are collected from a 15-day-old culture and are suspended in a nutrient solution composed of: • 1.5 g/L of gelatine • 0.5 g/L of sodium oleate • 24 g/L of PDB
The contaminated wheat plants are incubated for 72 hours at about 20° C. and at 100% relative humidity, and then for 15 days at 80% relative humidity.

Botrytis cinerea = test: In vivo test on Botrytis cinerea (cucumber grey mould), preventive spray; details: dose of 500 g/ha; cucumber plants (Marketer variety); contaminated 24 hours after treatment; grading 5/7 days after contamination vs control plants
Septoria nodorum = test: In vivo test on Septoria nodorum (wheat glume blotch), wheat plants, preventive spray; details: dose of 500 g/ha; wheat plants (Scipion variety); contaminated 24 hours after treatment; grading 15 to 20 days after contamination vs control plants
[1] = system: Erisyphe graminis f. sp. tritici; test: In vivo test on Erisyphe graminis f. sp. tritici (powdery mildew of wheat), preventive spray; details: dose of 500 g/ha; wheat plants (Audace variety); contaminated 24 hours after treatment; grading 7 to 14 days after contamination vs control plants
Procedure: as §1, with “(Audace” for “(Scipion”, “on” for “on a”, “soil-pozzulana” for “soil-pozzolana”, “material. After 24 hours, the plants are contaminated by dusting them with Erisyphe graminis f. sp. tritici spores, the dusting being carried out using diseased plants.” for “material.”

Drechslera teres = test: In vivo test on Drechslera teres (barley net blotch), preventive spray; details: dose of 500 g/ha; barley plants (Express variety); contaminated 24 hours after treatment; grading 12 days after contamination vs control plants
Procedure: as §1, with “the active material. tested is” for “the active material tested is”, “material concentration. Barley plants (Express” for “material concentration. Wheat plants (Scipion”, “Barley plants (Express variety) in” for “Wheat plants (Scipion variety) in”
After 24 hours, the plants are contaminated by spraying them with an aqueous suspension of Dreschslera teres spores (12,000 spores per mL). The spores are collected from a 12-day-old culture. The contaminated wheat plants are incubated for 24 hours at about 20° C. and at 100% relative humidity, and then for 12 days at 80% relative humidity.
Grading is carried out 12 days after the contamination, in comparison with the control plants. Under these conditions, good (at least 50%) protection is observed, at a dose of 500 g/ha, with the compounds described as example: 9, 13, 14, 15, 18, 20, 21, 22, 24, 26, 27, 30, 31, 32, 33, 34, 35, 36, 37, 41, 43, 45, 47, 49, 62, 69, 70, 72.

Puccinia recondita = test: In vivo test on Puccinia recondita (wheat brown rust), preventive spray; details: dose of 500 g/ha; wheat plants (Scipion variety); contaminated 24 hours after treatment; grading 10 days after contamination vs control plants
Procedure: as §1, with “type,” for “type.”
After 24 hours, the plants are contaminated by spraying them with an aqueous suspension of Puccinia recondita spores (150,000 spores per mL). The contaminated wheat plants are incubated for 24 hours at about 20° C. and at 100% relative humidity, and then for 10 days at 70% relative humidity.
Grading is carried out 10 days after the contamination, in comparison with the control plants. Under these conditions, good (at least 50%) protection is observed, at a dose of 500 g/ha, with the following compounds described as example: 6, 10, 11, 12, 13, 14, 15, 28, 29, 30, 31, 34, 37, 42, 45, 46, 50, 51, 52, 62, 72.

Nc1csc(C(=O)Nc2ccc(Oc3ccc(C(F)(F)F)cc3)cc2)c1O [compound 1]
good (at least 50%) or total protection (Alternaria brassicae): at least 50%
good (at least 50%) protection (Septoria tritici): at least 50%

C=CCOC(=O)Nc1cn(C)c(C(=O)Nc2ccc(Oc3ccc(C(F)(F)F)cc3)cc2)c1OC [compound 5, 1-Methyl-4-[(allyloxycarbonyl)amino]-3-methoxy-1H—N-para-[4-(trifluoromethyl)phenoxy]phenyl-pyrrole-2-carboxamide]
good (at least 50%) protection (Botrytis cinerea): at least 50%

CCOC(=O)c1c(O)c(C(=O)Nc2ccc(Oc3ccc(C(F)(F)F)cc3)cc2)cn1C [compound 15, 1-methyl-2-ethoxycarbonyl-3-hydroxy-1H-N-para-[4-(trifluoromethyl)phenoxy]phenyl-pyrrole-4-carboxamide]
good (at least 50%) or total protection (Alternaria brassicae): at least 50%

Nc1nccc(C(=O)Nc2ccc(Oc3ccc(C(F)(F)F)cc3)cc2)c1O [compound 19, [4-(Trifluoromethyl)phenoxy]anilino-(2-amino-3-hydroxy)pyridyl-4-carboxamide]
good (at least 50%) or total protection (Septoria nodorum): at least 50%

Cc1ccc(Oc2ccc(NC(=O)c3ccnc(N)c3O)cc2)cc1 [compound 22]
good (at least 50%) or total protection [1]: at least 50%
good (at least 50%) protection (Septoria tritici): at least 50%
good (at least 50%) protection (Drechslera teres): at least 50%

Nc1nccc(C(=O)Nc2ccc(Oc3cccc(C(F)(F)F)c3)cc2)c1O [compound 23]
good (at least 50%) or total protection (Alternaria brassicae): at least 50%
good (at least 50%) protection (Septoria tritici): at least 50%

Nc1nccc(C(=O)Nc2ccc(Oc3ccc(C(F)(F)F)c(Cl)c3)cc2)c1O [compound 24]
good (at least 50%) or total protection (Alternaria brassicae): at least 50%
good (at least 50%) or total protection [1]: at least 50%
good (at least 50%) protection (Septoria tritici): at least 50%
good (at least 50%) protection (Drechslera teres): at least 50%
good (at least 50%) protection (Botrytis cinerea): at least 50%

Nc1nccc(C(=O)Nc2ccc(OC(F)(F)C(F)F)cc2)c1O [compound 27]
good (at least 50%) or total protection [1]: at least 50%
good (at least 50%) protection (Drechslera teres): at least 50%

COC(=O)Nc1noc(C(=O)Nc2ccc(Oc3ccc(C(F)(F)F)cc3)cc2)c1OC [compound 28]
good (at least 50%) or total protection (Alternaria brassicae): at least 50%
good (at least 50%) or total protection (Septoria nodorum): at least 50%

COC(=O)Nc1noc(C(=O)Nc2ccc(Oc3cccc(C(F)(F)F)c3)cc2)c1OC [compound 29]
good (at least 50%) or total protection [1]: at least 50%
good (at least 50%) protection (Septoria tritici): at least 50%
good (at least 50%) protection (Puccinia recondita): at least 50%

Nc1noc(C(=O)Nc2ccc(Oc3ccc(C(F)(F)F)cc3)cc2)c1O [compound 32, 3-Amino4-hydroxy-N-para-[4-(trifluoromethyl)phenoxy]phenylisoxazole-5-carboxamide]
good (at least 50%) or total protection (Alternaria brassicae): at least 50%
good (at least 50%) or total protection (Septoria nodorum): at least 50%

COC(=O)c1onc(C(=O)Nc2ccc(Oc3ccc(C(F)(F)F)cc3)cc2)c1OC [compound 39]
good (at least 50%) or total protection (Septoria nodorum): at least 50%

Nc1cc(C(=O)Nc2ccc(Oc3ccc(C(F)(F)F)cc3)cc2)ns1 [compound 42, 5-Amino-N-para-[4-(trifluoromethyl)phenoxy]phenyl-isothiazole-3-carboxamide]
good (at least 50%) or total protection (Alternaria brassicae): at least 50%

Nc1cncc(C(=O)Nc2ccc(Oc3cccc(C(F)(F)F)c3)cc2)c1O [compound 45, 5-amino-4-hydroxy-N-para-[3-(trifluoromethyl)phenoxy]phenyl nicotinamide]
good (at least 50%) protection (Botrytis cinerea): at least 50%

COC(=O)c1cncc(C(=O)Nc2ccc(Oc3ccc(C(F)(F)F)c(Cl)c3)cc2)c1OC [compound 49, 5-methoxycarbonyl-4-methoxy-N-para-[3-chloro-4-(trifluoromethyl)phenoxy]phenyl nicotinamide]
good (at least 50%) or total protection (Septoria nodorum): at least 50%

Cc1nc(C)c(C(=O)Nc2ccc(OC(F)(F)C(F)F)cc2)c(O)c1N [compound 53, 2,6-dimethyl-5-amino-4-hydroxy-N-para-(1,1,2,2 tetrafluoroethoxy)phenyl nicotinamide]
good (at least 50%) or total protection (Septoria nodorum): at least 50%

CCCCOc1ccc(NC(=O)c2occc(=O)c2O)cc1 [compound 59, N-(4-Butyloxy-phenyl)-2-(3-hydroxy-γ-pyranone)-carboxamide]
good (at least 50%) or total protection (Alternaria brassicae): at least 50%

CC(C)N1CC(C(=O)Nc2ccc(Oc3ccccc3)cc2)=C(O)C1=O [compound 72, N-4-(phenoxy)phenyl-(1-N-isopropyl-4-hydroxy-5-dioxo-2,5-dihydro-1H)-pyrrol-3-carboxamide]
good (at least 50%) or total protection (Alternaria brassicae): at least 50%
good (at least 50%) or total protection (Septoria nodorum): at least 50%

Source: patent publication US7084163B2, “Heterocyclic carboxamides and their use as fungicides” (Bayer Cropscience S.A., priority 2001, dated 2006)
